Assay results as given in PubChem BioAssay (EPA / NIEHS).
The inconclusive results got no clear call from the source; some entries with a clear call stand among them for comparison. For part of these data: A potency beside an inconclusive call is a rough fit, not a confirmed value. Calls of active or inactive are those of the source. How the source made its calls: active means hit-call score of the fitted dose curve at least 0.9, where 1 is the maximum; inconclusive means response in the unintended direction; inactive means score below 0.9.

The chains behind the UniProt entries cited, without tags or fusion partners. Where a name states a change or a piece, a line headed by the entry shows the natural chain unless it says otherwise.
UniProt P20789, whole entry, looked up: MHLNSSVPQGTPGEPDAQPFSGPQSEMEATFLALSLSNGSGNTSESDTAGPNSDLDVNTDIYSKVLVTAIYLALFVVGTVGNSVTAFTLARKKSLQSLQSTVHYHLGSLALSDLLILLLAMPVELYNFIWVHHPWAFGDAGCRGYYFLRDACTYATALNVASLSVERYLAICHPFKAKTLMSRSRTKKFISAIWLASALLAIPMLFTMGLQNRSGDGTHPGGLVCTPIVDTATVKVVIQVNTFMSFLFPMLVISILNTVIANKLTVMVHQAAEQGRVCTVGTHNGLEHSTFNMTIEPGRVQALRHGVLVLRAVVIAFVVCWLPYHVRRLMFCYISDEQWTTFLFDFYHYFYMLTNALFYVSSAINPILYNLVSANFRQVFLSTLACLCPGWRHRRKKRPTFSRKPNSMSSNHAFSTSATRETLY
UniProt P49884, whole entry, looked up: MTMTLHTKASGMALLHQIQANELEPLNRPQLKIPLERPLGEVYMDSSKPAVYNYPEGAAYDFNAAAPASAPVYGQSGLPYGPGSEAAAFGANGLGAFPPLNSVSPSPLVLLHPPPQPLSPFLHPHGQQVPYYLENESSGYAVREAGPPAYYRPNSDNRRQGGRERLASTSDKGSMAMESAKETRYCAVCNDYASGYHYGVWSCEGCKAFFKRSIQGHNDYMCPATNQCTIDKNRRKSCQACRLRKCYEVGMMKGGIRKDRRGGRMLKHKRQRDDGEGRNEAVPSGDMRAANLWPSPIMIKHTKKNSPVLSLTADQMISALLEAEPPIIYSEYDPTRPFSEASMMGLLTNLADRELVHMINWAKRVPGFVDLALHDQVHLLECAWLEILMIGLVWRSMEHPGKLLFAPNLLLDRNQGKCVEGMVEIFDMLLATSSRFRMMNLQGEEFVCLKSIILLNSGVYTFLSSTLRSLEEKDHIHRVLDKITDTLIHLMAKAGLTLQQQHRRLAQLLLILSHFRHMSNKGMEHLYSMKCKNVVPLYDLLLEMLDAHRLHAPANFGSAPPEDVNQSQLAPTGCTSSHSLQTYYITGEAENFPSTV
UniProt P19785, whole entry, looked up: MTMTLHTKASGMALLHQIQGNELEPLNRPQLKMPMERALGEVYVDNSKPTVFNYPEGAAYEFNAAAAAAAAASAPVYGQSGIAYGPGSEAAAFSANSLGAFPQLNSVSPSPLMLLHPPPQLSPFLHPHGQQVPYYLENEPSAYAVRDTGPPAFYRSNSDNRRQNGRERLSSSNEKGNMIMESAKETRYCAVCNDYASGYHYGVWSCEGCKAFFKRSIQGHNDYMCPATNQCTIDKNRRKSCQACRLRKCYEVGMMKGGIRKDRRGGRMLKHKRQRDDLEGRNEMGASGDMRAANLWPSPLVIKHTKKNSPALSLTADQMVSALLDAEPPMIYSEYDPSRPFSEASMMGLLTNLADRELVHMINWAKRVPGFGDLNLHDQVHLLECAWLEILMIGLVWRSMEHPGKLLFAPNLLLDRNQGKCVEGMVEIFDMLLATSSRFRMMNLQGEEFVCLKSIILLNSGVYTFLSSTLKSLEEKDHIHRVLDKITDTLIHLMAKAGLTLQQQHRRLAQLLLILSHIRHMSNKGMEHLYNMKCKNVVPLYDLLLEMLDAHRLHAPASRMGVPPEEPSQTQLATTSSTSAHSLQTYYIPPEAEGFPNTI
UniProt P04637, whole entry, looked up: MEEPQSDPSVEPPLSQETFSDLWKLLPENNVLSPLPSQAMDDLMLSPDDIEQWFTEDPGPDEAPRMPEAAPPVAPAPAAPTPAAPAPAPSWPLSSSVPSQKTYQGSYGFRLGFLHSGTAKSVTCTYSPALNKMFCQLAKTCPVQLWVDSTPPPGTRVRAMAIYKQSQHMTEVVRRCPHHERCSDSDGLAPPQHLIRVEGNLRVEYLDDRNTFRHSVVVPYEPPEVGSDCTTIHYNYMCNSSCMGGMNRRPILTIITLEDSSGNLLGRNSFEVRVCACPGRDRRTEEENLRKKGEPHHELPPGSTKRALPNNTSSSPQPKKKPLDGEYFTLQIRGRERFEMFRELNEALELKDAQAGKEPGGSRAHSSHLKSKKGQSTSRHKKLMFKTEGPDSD
UniProt P70536: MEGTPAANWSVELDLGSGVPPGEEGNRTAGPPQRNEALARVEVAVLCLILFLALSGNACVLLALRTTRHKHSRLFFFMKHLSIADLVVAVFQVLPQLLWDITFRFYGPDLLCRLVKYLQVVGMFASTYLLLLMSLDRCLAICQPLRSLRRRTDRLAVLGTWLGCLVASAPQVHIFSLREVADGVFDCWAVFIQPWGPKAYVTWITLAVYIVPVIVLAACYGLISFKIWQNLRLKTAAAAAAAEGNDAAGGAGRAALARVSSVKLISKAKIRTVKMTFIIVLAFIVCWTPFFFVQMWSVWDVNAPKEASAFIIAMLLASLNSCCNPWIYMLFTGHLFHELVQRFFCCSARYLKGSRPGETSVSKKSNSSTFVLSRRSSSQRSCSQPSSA
UniProt P03372, whole entry, looked up: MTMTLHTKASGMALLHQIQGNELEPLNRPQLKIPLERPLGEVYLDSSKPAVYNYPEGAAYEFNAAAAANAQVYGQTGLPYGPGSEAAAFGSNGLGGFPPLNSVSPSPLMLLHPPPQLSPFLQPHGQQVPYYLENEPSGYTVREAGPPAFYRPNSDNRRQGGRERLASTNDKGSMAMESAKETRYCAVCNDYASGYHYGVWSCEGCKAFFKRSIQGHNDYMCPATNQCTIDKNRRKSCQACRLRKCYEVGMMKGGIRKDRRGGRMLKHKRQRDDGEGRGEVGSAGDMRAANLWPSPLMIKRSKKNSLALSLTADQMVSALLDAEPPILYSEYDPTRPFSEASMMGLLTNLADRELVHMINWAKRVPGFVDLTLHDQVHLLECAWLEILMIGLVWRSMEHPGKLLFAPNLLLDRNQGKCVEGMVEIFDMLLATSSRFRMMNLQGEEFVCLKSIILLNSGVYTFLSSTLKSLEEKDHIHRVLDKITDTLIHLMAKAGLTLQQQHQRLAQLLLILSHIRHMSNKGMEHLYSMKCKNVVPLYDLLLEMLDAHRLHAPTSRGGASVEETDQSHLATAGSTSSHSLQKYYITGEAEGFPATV
UniProt P35353: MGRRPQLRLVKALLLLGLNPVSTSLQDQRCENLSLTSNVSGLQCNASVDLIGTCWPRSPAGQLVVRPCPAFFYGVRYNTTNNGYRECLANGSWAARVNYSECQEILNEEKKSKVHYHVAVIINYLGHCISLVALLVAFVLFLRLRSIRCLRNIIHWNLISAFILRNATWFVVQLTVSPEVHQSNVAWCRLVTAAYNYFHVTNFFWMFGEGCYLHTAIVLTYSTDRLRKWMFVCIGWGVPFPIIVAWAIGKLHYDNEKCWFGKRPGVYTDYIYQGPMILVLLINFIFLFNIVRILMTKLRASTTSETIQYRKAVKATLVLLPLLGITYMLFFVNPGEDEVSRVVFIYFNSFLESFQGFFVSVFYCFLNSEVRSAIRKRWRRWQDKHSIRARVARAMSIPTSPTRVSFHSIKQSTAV
UniProt P19643, whole entry, looked up: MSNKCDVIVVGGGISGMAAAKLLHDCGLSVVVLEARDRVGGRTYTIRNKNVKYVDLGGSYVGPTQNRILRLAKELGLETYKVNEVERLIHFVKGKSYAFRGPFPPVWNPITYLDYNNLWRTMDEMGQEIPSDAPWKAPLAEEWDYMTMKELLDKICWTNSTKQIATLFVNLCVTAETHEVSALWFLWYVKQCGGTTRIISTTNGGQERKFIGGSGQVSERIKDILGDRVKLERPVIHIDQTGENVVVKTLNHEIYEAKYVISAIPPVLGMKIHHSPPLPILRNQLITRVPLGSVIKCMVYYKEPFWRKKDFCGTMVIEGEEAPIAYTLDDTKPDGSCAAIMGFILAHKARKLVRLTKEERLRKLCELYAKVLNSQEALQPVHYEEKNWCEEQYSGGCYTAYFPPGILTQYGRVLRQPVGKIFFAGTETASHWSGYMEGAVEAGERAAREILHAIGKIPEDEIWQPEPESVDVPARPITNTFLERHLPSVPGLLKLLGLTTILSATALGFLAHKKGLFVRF

How the values were obtained:
[1] = tested on: rat Monoamine Oxidase, MAO-A, Central (MAOAC), gene 29253; experiment: NVS_ENZ_rMAOAC: NovaScreen (NVS) Enzymatic Assay for rat Monoamine Oxidase, MAO-A, Central (MAOAC) (AID 2283243);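 further: potency refers to inhibition seen as signal drop below DMSO baseline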
Procedure, shortened: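 Rat brain tissue extract served as the cell-free enzyme source; activity was measured by radiometric scintillation counting 1.5 hours after compound addition. Loss of signal relative to DMSO baseline indicated inhibition; primary screen at 25 uM in duplicate.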

[2] = molecular target: rat Neurotensin Receptor (NTS), Ntsr1 (gene 366274) (UniProt P20789); experiment: NVS_GPCR_rNTS: NovaScreen (NVS) G Protein-Coupled Receptor Assay for rat Neurotensin Receptor (NTS) (AID 2283308)
Procedure, shortened: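 Rat forebrain membranes; radioligand binding with competitive displacement, read by filter-based scintillation counting 1 h after dosing. Primary screen in duplicate at 25 uM; actives (e.g., 30% inhibition) rerun in concentration-response up to 50 uM, loss-of-signal versus DMSO.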

[3] = molecular target: bovine Estrogen Receptor (ER), ESR1 (gene 407238) (UniProt P49884); experiment: NVS_NR_bER: NovaScreen (NVS) Nuclear Receptor Binding Assay for bovine Estrogen Receptor (ER) (AID 2283345);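 further: actives lower the bound radioligand count which means they displace the ER ligand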
Procedure, shortened: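 Displacement of a radioligand from estrogen receptor in bovine uterine membrane preparations; scintillation signal taken at 18 hours, DMSO as baseline. Single-concentration duplicates (25 uM) preceded concentration-response follow-up of actives.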

[4] = molecular target: mouse Estrogen Receptor alpha (Era), Esr1 (gene 13982) (UniProt P19785); experiment: NVS_NR_mERa: NovaScreen (NVS) Nuclear Receptor Binding Assay for mouse Estrogen Receptor alpha (Era) (AID 2283378);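 further: hit means loss of bound radioligand signal relative to DMSO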
Procedure, shortened: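 Extracted mouse Era incubated with tritiated or iodinated radioligand plus test chemical, 18 h. Bound fraction separated on filters, counted by scintillation. DMSO = negative control/baseline; duplicate single-point at 25 uM, then concentration-response follow-up.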

[5] = TOX21_p53_BLA_p2_viability: Viability Assessment in the Tox21 HCT-116 p53 Agonism Beta-lactamase Assay, Phase 2 (AID 2283591);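 further: compound exposure lasted 16 h at 37 °C; actives lower the ATP signal meaning cytotoxicity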
Procedure, shortened: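 HCT116 p53-bla cells, 4000/well, dosed after 5 h plating (217-fold dilution of DMSO stocks) and incubated 16 h at 37C. Viability taken as cellular ATP by CellTiter-Glo luminescence after 30 min RT; signal loss marks cytotoxicity.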

[6] = molecular target: Cellular tumor antigen p53 (Homo sapiens) (UniProt P04637); experiment: TOX21_p53_BLA_p2_ratio: Tox21 HCT-116 p53 Agonism Beta-lactamase Assay, Ratio, Phase 2 (AID 2283592)
Procedure, shortened: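 HCT116 p53-bla; 4000 cells/well; 5 h pre-incubation; cpd in DMSO, 217-fold dilution; 16 h 37C/5% CO2; CCF4-AM 2 h RT; Ex 405, Em 460/530 ratio; DMSO = baseline; positive fitting direction.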

[7] = TOX21_p53_BLA_p3_viability: Viability Assessment in the Tox21 HCT-116 p53 Agonism Beta-lactamase Assay, Phase 3 (AID 2283593);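 further: cells exposed to compound for 16 h before reading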
Procedure, shortened: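 HCT116 cells, 4000/well, dosed 5 h after plating by pin transfer (217-fold dilution from DMSO stock) and incubated 16 h at 37C, 5% CO2. Viability read as ATP luminescence with CellTiter-Glo after 30 min at room temperature.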

[8] = molecular target: Cellular tumor antigen p53 (Homo sapiens) (UniProt P04637); experiment: TOX21_p53_BLA_p3_ratio: Tox21 HCT-116 p53 Agonism Beta-lactamase Assay, Ratio, Phase 3 (AID 2283596)
Procedure, shortened: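 HCT116 p53-bla cells (4000/well) given compound in DMSO (217-fold dilution) after 5 h, incubated 16 h at 37C. CCF4-AM substrate 2 h at room temperature; 460/530 nm emission ratio, gain fitted against DMSO.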

[9] = TOX21_p53_BLA_p4_viability: Viability Assessment in the Tox21 HCT-116 p53 Agonism Beta-lactamase Assay, Phase 4 (AID 2283597);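 further: hits lower the luminescence signal meaning cytotoxicity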
Procedure, shortened: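 Cells plated, 5 h pre-incubation; DMSO compounds pinned (217-fold dilution); 16 h, 37C/5% CO2; CCF4-AM 2 h RT; CellTiter-Glo 30 min RT; luminescence read.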

[10] = molecular target: Cellular tumor antigen p53 (Homo sapiens) (UniProt P04637); experiment: TOX21_p53_BLA_p5_ratio: Tox21 HCT-116 p53 Agonism Beta-lactamase Assay, Ratio, Phase 5 (AID 2283599)
Procedure, shortened: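 HCT-116 p53-bla cells (4000/well) plated 5 h, dosed with compound (217-fold DMSO dilution) for 16 h at 37 C; CCF4-AM substrate 2 h at room temperature. Activity is the 460/530 nm emission ratio (405 nm excitation), fitted in gain-of-signal direction versus DMSO.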

[11] = TOX21_p53_BLA_p5_viability: Viability Assessment in the Tox21 HCT-116 p53 Agonism Beta-lactamase Assay, Phase 5 (AID 2283600)
Procedure, shortened: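 4000 cells/well; 5 h pre-incubation; DMSO compounds pin-transferred, 217-fold dilution; 16 h, 37C/5% CO2; CCF4-AM 2 h RT; CellTiter-Glo 30 min RT; luminescence.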

[12] = molecular target: Cellular tumor antigen p53 (Homo sapiens) (UniProt P04637); experiment: TOX21_p53_BLA_p4_ratio: Tox21 HCT-116 p53 Agonism Beta-lactamase Assay, Ratio, Phase 4 (AID 2283601)
Procedure, shortened: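 HCT-116 p53 beta-lactamase reporter cells (4000/well) preincubated 5 h, then compound (217-fold dilution of DMSO stock) for 16 h at 37C. CCF4-AM substrate added 2 h at room temperature; 460/530 nm emission ratio fitted upward versus DMSO.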

[13] = molecular target: rat Oxytocin Receptor (OXT), Oxtr (gene 25342) (UniProt P70536); experiment: NVS_GPCR_rOXT: NovaScreen (NVS) G Protein-Coupled Receptor Assay for rat Oxytocin Receptor (OXT) (AID 2283330)
Procedure, shortened: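 Radioligand displacement on rat uterine membranes, 1 h incubation, filter-based scintillation counting. Chemicals were screened in duplicate at 25 uM, and those passing threshold were retested in concentration-response up to 50 uM. Loss of binding was fitted versus DMSO.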

[14] = molecular target: Estrogen receptor (Homo sapiens) (UniProt P03372); experiment: NVS_NR_hER: NovaScreen (NVS) Nuclear Receptor Binding Assay for human Estrogen Receptor (ER) (AID 2283348)
Procedure, shortened: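 Radioligand competitive displacement binding to estrogen receptor from MCF7 extract, cell-free; 18 h after dosing, scintillation read-out. Primary screen in duplicate at 25 uM; actives followed up in concentration series; loss of signal vs DMSO.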

[15] = molecular target: rat Corticotropin Releasing Factor Receptor (CRF), Crhr1 (gene 58959) (UniProt P35353); experiment: NVS_GPCR_rCRF: NovaScreen (NVS) G Protein-Coupled Receptor Assay for rat Corticotropin Releasing Factor Receptor (CRF) (AID 2283300)
Procedure, shortened: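 Rat cortical membranes used as receptor source in a radioligand competitive displacement binding assay; scintillation read 2 h after dosing. Primary screen run in duplicate at 25 uM; loss of signal versus DMSO baseline indicates binding.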

[16] = molecular target: rat Monoamine Oxidase, MAO-B, Peripheral (MAOBP), Maob (gene 25750) (UniProt P19643); experiment: NVS_ENZ_rMAOBP: NovaScreen (NVS) Enzymatic Assay for rat Monoamine Oxidase, MAO-B, Peripheral (MAOBP) (AID 2283242)

## CCOC(=O)CC(C)O (centres undefined)
[1]
  outcome: inactive

## CCCCCCCCCC
[1]
  outcome: inactive
[2]
  AC50: inconclusive: 1.42 µM

## COc1nc(C)nc(NC(=O)NS(=O)(=O)c2ccccc2OCCCl)n1
[2]
  AC50: inconclusive: 0.0947 µM

## CC(O)C(=O)[O][Hg][c]1ccccc1 (centres undefined)
[3]
  AC50: inconclusive: 0.092 µM
[4]
  AC50: inconclusive: 11 µM
[5]
  AC50: active: 2.69 µM
[6]
  AC50: active: 9.88 µM
[7]
  AC50: active: 648 nM
[8]
  AC50: active: 2.21 µM
[9]
  AC50: active: 3.87 µM
[10]
  AC50: active: 2.92 µM
[11]
  AC50: active: 1.59 µM
[12]
  AC50: active: 5.92 µM

## COCCOC[C@H](CC1(C(=O)NC2CCC(C(=O)O)CC2)CCCC1)C(=O)Oc1ccc2c(c1)CCC2 (some centres undefined)
[13]
  outcome: inactive

## COC(=O)c1ccc(I)cc1S(=O)(=O)NC(=O)Nc1nc(C)nc(OC)n1
[2]
  outcome: inactive

## COP(=S)(NC(C)C)Oc1ccc(C)cc1[N+](=O)[O-] (centres undefined)
[3]
  AC50: active: 9.3 µM
[14]
  AC50: active: 11.5 µM
[4]
  AC50: inconclusive: 25 µM

## c1ccc2occc2c1
[15]
  AC50: inconclusive: 25 µM

## COC(=O)CC(=O)OC
[15]
  AC50: inconclusive: 0.352 µM

## CCN(Cc1cccnc1)C(=O)c1cccc(Cl)c1[C@]1(C)C(=O)N(Cc2ccc(OC)cc2OC)c2ccc(Cl)cc21
[13]
  AC50: active: 72.8 nM

## CN1CCN(Cc2cc(-c3ccc4[nH]c(=O)oc4c3)co2)[C@@H](c2ccc(F)cc2)C1
[16]
  AC50: active: 10.1 µM

## NC(N)=O
[13]
  outcome: inactive
